Laboratory results: paper PMC6523986
These are yes or no findings as the source states them, for the method shown. In cells and extracts the contact can be indirect. A result given as binding can be weak or reduced; the word gives no strength. Blank lines part the entries; values can stand above or below the substance they belong to.

By UniProt entry, the sequences of proteins in these tests, tags left out. Where a name states a change or a piece, a line headed by the entry shows the natural chain unless it says otherwise.
UniProt P23258: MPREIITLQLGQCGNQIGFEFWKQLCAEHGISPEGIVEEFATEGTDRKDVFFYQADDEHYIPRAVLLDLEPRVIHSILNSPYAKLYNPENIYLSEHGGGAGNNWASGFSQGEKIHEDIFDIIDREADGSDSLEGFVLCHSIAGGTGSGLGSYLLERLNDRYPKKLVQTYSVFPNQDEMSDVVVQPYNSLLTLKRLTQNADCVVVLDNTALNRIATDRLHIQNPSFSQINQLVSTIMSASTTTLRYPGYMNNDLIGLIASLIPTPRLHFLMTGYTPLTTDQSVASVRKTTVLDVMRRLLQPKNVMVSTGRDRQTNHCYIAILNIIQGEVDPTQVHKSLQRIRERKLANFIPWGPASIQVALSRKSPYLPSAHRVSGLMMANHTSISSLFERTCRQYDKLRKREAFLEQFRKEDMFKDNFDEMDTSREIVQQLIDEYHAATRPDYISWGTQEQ
UniProt P83887: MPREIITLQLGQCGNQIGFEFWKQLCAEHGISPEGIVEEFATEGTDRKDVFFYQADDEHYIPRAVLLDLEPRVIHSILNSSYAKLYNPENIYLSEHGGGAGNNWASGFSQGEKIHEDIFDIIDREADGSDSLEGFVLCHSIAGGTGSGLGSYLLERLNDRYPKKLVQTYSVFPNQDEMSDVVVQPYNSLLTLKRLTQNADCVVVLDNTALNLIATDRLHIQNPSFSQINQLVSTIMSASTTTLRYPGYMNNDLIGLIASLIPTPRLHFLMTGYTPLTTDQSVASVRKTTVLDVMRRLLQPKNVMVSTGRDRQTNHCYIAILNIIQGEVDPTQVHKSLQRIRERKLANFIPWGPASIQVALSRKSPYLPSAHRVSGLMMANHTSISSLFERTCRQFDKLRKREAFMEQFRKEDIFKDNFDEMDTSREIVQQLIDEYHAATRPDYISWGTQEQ
UniProt P29351: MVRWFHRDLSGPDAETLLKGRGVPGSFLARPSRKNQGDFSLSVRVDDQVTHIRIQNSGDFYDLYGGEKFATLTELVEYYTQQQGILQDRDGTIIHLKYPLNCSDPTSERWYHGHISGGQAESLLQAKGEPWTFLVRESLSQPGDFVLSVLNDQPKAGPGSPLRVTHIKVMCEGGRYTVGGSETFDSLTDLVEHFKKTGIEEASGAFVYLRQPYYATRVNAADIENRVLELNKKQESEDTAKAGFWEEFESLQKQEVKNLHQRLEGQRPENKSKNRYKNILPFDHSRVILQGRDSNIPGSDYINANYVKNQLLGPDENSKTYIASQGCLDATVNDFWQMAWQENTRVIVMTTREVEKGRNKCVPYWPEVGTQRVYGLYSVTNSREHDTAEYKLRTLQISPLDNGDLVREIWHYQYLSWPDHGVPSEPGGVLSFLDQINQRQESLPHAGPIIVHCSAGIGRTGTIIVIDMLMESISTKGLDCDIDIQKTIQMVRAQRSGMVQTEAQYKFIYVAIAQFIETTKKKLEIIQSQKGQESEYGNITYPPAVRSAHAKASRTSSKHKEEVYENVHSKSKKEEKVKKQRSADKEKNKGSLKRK
UniProt P29350: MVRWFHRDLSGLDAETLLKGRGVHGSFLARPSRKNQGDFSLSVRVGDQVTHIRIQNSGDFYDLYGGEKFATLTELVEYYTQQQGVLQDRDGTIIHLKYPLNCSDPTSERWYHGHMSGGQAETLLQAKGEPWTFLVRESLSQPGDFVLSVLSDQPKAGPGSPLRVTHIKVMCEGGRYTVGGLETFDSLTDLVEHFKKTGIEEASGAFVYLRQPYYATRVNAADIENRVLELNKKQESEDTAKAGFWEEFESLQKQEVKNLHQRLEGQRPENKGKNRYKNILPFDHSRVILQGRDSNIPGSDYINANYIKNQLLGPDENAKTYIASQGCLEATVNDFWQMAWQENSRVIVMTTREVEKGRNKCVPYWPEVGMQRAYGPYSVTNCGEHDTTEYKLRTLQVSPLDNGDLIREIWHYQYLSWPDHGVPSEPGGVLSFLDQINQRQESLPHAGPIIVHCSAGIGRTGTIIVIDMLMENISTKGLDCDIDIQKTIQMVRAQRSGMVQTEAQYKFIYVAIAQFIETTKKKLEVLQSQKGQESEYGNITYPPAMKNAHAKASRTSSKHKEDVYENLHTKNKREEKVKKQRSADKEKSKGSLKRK

What was measured:
[1] = molecular target: γ-tubulin (MCF7 cells) (human (endogenous in MCF7)) (UniProt P23258); test: co-IP; MCF7 extracts precipitated with antibody to SHP-1 or to γ-tubulin, immunoblot
[2] = molecular target: γ-tubulin (BMMCs) (mouse (endogenous in BMMCs)) (UniProt P83887); test: co-IP; BMMC extracts (HEPES buffer with 1% NP-40, protease inhibitors) incubated with antibodies immobilised on protein A or protein G beads, immunoblot; in Figure 9B cells nonactivated or antigen-activated (3 min, 10 min)
[3] = molecular target: C-terminally EGFP-tagged mouse SHP-1 (mSHP-1_EGFP) (mouse) (UniProt P29351); test: co-IP; extracts of HEK cells expressing mSHP-1_EGFP or EGFP alone precipitated with antibody to GFP, blot for γ-tubulin
[4] = molecular target: SHP-1 (MCF7 cells) (human (endogenous in MCF7)) (UniProt P29350); test: co-IP; MCF7 extracts precipitated with antibody to SHP-1 or to γ-tubulin, immunoblot

binding [1]: binds
Substance: SHP-1 (MCF7 cells) (from UniProt P29350 1-595) (enzyme)

Substance: SHP-2 (gene Ptpn11) (from UniProt P35235 1-593) (enzyme)
binding [2]: no binding

Substance: Src homology 2 (SH2) domain-containing protein tyrosine phosphatase 1 (SHP-1; Ptpn6) (from UniProt P29351 1-595) (enzyme)
binding [2]: binds

Substance: γ-tubulin (HEK cells) (from UniProt P23258)
binding [3]: binds

binding [4]: binds
Substance: γ-tubulin (MCF7 cells) (from UniProt P23258)
